NP40-soluble protein abundance data for 35 targets are collected here from the supplement of paper PMC6411743.

Sequences of proteins named here, by UniProt entry; tags and fusion partners are left off. A change or cut given only in a name is not applied to a line headed by its entry.
UniProt Q9BQA1, whole entry: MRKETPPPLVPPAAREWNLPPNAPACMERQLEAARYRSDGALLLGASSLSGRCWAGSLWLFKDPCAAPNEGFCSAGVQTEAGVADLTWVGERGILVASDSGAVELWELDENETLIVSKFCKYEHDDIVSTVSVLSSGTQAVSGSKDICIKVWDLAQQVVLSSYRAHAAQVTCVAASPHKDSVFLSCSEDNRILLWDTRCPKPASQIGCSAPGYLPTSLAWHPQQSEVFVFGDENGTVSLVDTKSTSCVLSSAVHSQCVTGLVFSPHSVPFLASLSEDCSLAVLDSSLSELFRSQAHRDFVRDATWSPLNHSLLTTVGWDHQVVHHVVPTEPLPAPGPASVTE
UniProt Q9BRZ2: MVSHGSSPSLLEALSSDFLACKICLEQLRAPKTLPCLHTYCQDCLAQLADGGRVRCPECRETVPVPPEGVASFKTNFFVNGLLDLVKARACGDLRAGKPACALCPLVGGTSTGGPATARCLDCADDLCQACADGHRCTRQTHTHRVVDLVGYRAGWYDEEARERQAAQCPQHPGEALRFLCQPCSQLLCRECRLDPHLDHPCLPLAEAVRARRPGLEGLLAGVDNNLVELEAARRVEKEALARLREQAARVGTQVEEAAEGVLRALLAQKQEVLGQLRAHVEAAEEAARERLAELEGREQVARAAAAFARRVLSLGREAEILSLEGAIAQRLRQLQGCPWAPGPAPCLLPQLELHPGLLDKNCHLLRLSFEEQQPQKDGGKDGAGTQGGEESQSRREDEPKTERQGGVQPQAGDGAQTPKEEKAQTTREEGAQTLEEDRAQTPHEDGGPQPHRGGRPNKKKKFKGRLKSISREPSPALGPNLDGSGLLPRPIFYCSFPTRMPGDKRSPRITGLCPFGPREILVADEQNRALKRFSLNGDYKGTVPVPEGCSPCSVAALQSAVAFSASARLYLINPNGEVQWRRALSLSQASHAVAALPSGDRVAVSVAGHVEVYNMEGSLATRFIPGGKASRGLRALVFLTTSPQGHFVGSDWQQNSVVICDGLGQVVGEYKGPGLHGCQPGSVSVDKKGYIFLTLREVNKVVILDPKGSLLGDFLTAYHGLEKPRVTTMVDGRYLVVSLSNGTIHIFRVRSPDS
UniProt Q9BUH6, whole entry: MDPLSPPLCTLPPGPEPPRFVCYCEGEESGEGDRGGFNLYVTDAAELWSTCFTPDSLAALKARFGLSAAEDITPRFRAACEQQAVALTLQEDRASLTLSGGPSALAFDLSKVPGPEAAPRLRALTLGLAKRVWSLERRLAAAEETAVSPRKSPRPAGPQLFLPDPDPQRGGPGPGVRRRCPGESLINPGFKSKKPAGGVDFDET
UniProt Q9BSR8: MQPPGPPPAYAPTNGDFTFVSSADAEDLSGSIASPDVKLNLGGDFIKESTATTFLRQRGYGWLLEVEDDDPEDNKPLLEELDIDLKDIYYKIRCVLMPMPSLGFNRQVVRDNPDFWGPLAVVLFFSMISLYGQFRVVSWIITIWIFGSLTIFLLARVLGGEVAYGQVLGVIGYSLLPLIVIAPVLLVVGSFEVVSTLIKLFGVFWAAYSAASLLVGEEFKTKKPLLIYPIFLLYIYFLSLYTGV
UniProt Q99797: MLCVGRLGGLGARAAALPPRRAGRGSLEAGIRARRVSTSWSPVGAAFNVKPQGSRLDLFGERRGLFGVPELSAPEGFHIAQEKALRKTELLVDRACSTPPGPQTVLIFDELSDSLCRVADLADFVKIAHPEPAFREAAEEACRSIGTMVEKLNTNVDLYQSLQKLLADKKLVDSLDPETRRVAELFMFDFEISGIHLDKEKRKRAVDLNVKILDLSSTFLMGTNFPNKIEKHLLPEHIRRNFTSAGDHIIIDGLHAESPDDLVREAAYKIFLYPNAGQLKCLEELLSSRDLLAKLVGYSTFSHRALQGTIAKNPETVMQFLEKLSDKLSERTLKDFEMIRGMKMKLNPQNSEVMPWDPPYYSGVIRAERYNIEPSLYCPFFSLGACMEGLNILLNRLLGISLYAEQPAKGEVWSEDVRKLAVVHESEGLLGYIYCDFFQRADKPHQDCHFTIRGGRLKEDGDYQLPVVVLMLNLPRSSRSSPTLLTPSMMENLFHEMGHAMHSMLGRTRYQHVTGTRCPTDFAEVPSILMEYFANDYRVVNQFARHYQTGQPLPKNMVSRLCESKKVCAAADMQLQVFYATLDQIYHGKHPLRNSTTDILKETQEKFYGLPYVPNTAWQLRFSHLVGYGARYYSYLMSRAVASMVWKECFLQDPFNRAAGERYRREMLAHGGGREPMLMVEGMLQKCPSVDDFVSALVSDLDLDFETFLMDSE
UniProt Q9BVC4, whole entry: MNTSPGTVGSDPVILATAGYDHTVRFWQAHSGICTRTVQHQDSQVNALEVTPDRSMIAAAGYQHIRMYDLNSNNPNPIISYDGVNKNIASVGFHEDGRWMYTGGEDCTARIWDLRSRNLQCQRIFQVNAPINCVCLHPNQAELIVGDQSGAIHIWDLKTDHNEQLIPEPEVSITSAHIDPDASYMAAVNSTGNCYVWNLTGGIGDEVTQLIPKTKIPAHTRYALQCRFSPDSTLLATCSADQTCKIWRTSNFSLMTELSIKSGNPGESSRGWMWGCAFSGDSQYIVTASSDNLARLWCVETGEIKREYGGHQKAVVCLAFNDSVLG
UniProt Q9BYV9: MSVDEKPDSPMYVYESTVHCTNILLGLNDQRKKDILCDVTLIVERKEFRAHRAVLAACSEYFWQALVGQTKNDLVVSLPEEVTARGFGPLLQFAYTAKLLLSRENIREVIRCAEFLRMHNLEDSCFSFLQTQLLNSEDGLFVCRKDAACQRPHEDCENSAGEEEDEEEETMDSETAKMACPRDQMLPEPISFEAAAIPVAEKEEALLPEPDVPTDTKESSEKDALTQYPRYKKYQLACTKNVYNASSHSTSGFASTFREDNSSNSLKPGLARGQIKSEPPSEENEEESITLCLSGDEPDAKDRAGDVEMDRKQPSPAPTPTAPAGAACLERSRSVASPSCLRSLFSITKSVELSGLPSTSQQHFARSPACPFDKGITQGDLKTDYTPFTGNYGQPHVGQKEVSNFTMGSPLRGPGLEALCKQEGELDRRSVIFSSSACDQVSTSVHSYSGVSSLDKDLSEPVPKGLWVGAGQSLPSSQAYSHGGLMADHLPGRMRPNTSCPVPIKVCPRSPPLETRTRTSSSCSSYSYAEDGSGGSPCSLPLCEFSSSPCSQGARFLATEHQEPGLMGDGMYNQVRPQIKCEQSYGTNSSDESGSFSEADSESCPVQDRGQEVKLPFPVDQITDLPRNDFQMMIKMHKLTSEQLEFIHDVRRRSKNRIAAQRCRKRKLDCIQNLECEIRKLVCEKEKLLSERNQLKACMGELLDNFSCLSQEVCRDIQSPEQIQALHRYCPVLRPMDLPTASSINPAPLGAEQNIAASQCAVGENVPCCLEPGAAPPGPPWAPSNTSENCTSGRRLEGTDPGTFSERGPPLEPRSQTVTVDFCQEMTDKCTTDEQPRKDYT
UniProt Q9BUR4: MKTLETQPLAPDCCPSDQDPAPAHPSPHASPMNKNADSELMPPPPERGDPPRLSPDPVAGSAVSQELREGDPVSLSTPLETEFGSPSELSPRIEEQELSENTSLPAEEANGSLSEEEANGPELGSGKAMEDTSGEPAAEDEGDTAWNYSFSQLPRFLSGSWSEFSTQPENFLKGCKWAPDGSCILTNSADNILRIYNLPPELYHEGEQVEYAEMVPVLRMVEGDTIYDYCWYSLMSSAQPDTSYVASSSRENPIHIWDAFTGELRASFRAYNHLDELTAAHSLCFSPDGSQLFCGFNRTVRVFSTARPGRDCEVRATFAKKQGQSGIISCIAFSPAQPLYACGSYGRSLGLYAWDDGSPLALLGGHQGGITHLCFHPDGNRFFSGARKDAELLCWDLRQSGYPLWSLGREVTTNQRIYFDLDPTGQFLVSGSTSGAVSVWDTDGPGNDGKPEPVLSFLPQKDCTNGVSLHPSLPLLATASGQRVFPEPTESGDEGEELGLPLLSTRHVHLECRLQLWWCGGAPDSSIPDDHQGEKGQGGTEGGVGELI
UniProt Q9BVJ6: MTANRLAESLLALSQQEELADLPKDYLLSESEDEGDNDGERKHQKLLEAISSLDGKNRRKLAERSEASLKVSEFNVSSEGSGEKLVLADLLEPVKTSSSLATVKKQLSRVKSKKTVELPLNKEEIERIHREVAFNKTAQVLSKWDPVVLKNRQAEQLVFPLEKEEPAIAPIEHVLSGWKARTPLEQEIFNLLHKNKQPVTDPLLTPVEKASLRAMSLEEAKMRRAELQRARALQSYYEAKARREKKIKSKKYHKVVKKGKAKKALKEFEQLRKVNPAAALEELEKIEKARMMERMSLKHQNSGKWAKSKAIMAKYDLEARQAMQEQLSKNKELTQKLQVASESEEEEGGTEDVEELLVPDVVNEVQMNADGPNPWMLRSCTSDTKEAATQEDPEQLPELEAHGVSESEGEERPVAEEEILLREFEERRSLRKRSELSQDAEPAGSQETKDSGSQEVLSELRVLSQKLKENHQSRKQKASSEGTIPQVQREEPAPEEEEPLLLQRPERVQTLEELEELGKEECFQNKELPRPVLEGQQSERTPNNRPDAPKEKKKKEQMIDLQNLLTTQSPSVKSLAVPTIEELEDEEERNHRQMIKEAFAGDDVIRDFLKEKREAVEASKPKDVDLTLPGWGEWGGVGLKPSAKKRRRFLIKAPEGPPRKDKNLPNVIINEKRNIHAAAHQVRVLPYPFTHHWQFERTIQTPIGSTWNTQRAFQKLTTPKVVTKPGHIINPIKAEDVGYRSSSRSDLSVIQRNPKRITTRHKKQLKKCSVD
UniProt Q99747: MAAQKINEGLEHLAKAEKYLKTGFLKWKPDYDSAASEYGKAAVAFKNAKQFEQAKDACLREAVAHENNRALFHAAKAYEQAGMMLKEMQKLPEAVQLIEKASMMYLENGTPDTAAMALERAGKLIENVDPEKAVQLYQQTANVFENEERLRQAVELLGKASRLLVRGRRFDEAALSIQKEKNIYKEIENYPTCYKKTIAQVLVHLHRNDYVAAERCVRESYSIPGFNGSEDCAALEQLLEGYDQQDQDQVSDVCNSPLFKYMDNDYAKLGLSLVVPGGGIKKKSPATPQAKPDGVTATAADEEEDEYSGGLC
UniProt Q9BYJ9: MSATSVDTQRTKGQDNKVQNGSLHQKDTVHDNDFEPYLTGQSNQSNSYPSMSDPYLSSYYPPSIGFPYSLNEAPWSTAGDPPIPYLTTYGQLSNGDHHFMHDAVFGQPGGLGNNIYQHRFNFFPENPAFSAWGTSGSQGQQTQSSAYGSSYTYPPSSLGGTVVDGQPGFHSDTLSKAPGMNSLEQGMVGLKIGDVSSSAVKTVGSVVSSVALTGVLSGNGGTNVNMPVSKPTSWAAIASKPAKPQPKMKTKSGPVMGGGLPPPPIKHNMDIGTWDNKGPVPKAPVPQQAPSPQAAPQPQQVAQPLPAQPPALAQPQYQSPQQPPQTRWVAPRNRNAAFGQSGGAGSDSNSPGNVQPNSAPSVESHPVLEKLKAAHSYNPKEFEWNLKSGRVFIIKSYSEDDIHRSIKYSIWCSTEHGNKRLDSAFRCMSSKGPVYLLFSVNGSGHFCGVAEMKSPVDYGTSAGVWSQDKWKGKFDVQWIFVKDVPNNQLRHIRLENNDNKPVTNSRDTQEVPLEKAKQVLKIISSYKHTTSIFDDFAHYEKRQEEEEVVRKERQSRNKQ
UniProt Q9BRT9, whole entry: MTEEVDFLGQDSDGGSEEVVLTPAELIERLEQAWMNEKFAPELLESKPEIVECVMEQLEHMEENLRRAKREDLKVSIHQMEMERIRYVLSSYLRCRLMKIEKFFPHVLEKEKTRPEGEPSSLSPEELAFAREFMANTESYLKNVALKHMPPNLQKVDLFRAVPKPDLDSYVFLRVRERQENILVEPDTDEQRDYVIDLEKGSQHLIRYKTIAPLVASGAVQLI
UniProt Q9BRG1: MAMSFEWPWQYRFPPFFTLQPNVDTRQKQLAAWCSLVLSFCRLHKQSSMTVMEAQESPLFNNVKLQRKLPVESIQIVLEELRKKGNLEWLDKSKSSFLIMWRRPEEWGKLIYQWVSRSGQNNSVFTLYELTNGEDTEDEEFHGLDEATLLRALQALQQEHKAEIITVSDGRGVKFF
UniProt Q99504: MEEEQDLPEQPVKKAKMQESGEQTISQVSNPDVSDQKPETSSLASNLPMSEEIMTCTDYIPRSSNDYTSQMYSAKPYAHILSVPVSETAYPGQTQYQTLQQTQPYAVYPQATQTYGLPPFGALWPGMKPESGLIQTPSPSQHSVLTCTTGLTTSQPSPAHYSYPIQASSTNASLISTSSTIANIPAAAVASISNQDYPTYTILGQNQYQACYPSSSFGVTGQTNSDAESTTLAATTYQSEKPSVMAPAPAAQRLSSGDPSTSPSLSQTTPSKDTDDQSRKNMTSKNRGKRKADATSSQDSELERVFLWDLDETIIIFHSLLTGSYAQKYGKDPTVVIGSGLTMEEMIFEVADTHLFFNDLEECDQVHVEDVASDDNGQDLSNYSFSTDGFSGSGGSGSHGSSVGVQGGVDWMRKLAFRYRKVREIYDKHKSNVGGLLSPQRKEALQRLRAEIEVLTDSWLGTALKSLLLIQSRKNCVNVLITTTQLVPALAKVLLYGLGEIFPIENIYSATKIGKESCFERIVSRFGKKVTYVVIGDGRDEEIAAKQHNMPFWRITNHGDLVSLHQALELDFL

± gives the standard deviation of the averaged measurements. The entries are a selection whose mix differs from that of the whole data set.

Compound in one assay: Nc1ncnc2c1ncn2[C@@H]1O[C@H](COP(=O)(O)OP(=O)(O)OP(=O)(O)O)[C@@H](O)[C@H]1O [adenosine triphosphate]
Description: NP40-soluble protein abundance relative to vehicle (solubility fold change) (ratio); higher = more soluble protein in presence of ATP. As to conditions: concentration: 1mM. An outline of the steps:
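Data come from three independent experiments in which Dounce-homogenised Jurkat crude lysate was treated at eight concentrations from 0.1 to 10 mM. Treatment ran 10 min at room temperature and then 3 min at 37 °C, after which 0.8% NP40 and benzonase were added for 60 min at 4 °C before ultracentrifugation. The supernatant underwent TMT labelling and LC-MS/MS, and vsn-normalised intensities were expressed as fold change against the detergent-processed vehicle in each replicate.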
On to UniProt Q9BRP8-2|Q9BRP8, for which the NP40-soluble protein abundance is 0.967 ± 0.14.

As for WDR77 (UniProt Q9BQA1), the NP40-soluble protein abundance amounted to 1.07 ± 0.073.

In the case of UniProt Q99729-3|Q99729, the NP40-soluble protein abundance is 1.04 ± 0.082.

Turning to TRIM56 (UniProt Q9BRZ2), the NP40-soluble protein abundance is 1.08 ± 0.065.

Take UniProt Q99941 and related entries: the NP40-soluble protein abundance was found to be 1.05 ± 0.13.

Regarding UniProt Q9BUH6, the NP40-soluble protein abundance was found to be 1.04 ± 0.066.

Regarding RBCK1 (UniProt Q9BYM8), the NP40-soluble protein abundance turned out to be 0.969 ± 0.042.

UniProt Q9BSR8 and related entries: the NP40-soluble protein abundance was 1.01 ± 0.027.

For MIPEP (UniProt Q99797), the NP40-soluble protein abundance came to 1.03 ± 0.072.

For UniProt Q9BVC4 and related entries, the NP40-soluble protein abundance came to 0.958 ± 0.028.

BACH2 (UniProt Q9BYV9): the NP40-soluble protein abundance turned out to be 1.05 ± 0.12.

Regarding UniProt Q9BUR4, the NP40-soluble protein abundance is 1.1 ± 0.093.

Turning to UniProt Q9BXW7 and related entries, the NP40-soluble protein abundance was determined as 0.965 ± 0.084.

For the target UniProt Q9BQC6, the NP40-soluble protein abundance amounted to 1.04 ± 0.044.

Turning to UniProt Q9BYG3, the NP40-soluble protein abundance came to 1.05 ± 0.074.

GRWD1 (UniProt Q9BQ67): the NP40-soluble protein abundance came out at 1.03 ± 0.038.

Regarding SGPP1 (UniProt Q9BX95), the NP40-soluble protein abundance came out at 0.928 ± 0.11.

In the case of TCF25 (UniProt Q9BQ70), the NP40-soluble protein abundance amounted to 1.07 ± 0.025.

In the case of UniProt Q99767-2, the NP40-soluble protein abundance stood at 0.825 ± 0.13.

For UniProt Q9BVJ6 and related entries, the NP40-soluble protein abundance amounted to 1.1 ± 0.065.

Turning to MRPL20 (UniProt Q9BYC9), the NP40-soluble protein abundance turned out to be 0.985 ± 0.031.

As for TARS2 (UniProt Q9BW92), the NP40-soluble protein abundance turned out to be 1.06 ± 0.09.

For the target ARPC5L (UniProt Q9BPX5), the NP40-soluble protein abundance came out at 0.907 ± 0.08.

As to UniProt Q9BV81, the NP40-soluble protein abundance came out at 0.98 ± 0.036.

As to SH3GL1 (UniProt Q99961), the NP40-soluble protein abundance stood at 0.984 ± 0.055.

Turning to RIOK1 (UniProt Q9BRS2), the NP40-soluble protein abundance came out at 1.07 ± 0.1.

Consider NAPG (UniProt Q99747), for which the NP40-soluble protein abundance amounted to 0.939 ± 0.077.

For DDA1 (UniProt Q9BW61), the NP40-soluble protein abundance is 0.933 ± 0.05.

Take YTHDF1 (UniProt Q9BYJ9): the NP40-soluble protein abundance came out at 1.03 ± 0.054.

Regarding GINS4 (UniProt Q9BRT9), the NP40-soluble protein abundance stood at 0.981 ± 0.035.

As to TSNAX (UniProt Q99598), the NP40-soluble protein abundance was 0.979 ± 0.036.

In the case of VPS25 (UniProt Q9BRG1), the NP40-soluble protein abundance amounted to 1.01 ± 0.1.

In the case of TRMT61B (UniProt Q9BVS5), the NP40-soluble protein abundance was 1 ± 0.087.

For MRPL9 (UniProt Q9BYD2), the NP40-soluble protein abundance was 1.05 ± 0.078.

UniProt Q99504 and related entries: the NP40-soluble protein abundance was 1.06 ± 0.033.

The same assay, now with this note: concentration: 2mM.
In the case of UniProt Q9BRP8-2|Q9BRP8, the NP40-soluble protein abundance is 0.975 ± 0.14.

On to WDR77 (UniProt Q9BQA1), for which the NP40-soluble protein abundance was 1.03 ± 0.047.

For the target UniProt Q99729-3|Q99729, the NP40-soluble protein abundance was 0.984 ± 0.11.

As to TRIM56 (UniProt Q9BRZ2), the NP40-soluble protein abundance was found to be 1.06 ± 0.086.

Take UniProt Q99941 and related entries: the NP40-soluble protein abundance was 1.12 ± 0.016.

For the target UniProt Q9BUH6, the NP40-soluble protein abundance was 1.06 ± 0.03.

For the target RBCK1 (UniProt Q9BYM8), the NP40-soluble protein abundance is 0.95 ± 0.028.

On to UniProt Q9BSR8 and related entries, for which the NP40-soluble protein abundance worked out at 1 ± 0.026.

In the case of MIPEP (UniProt Q99797), the NP40-soluble protein abundance was determined as 0.986 ± 0.066.

With UniProt Q9BVC4 and related entries, the NP40-soluble protein abundance stood at 0.981 ± 0.035.

Take BACH2 (UniProt Q9BYV9): the NP40-soluble protein abundance amounted to 0.972 ± 0.029.

UniProt Q9BUR4: the NP40-soluble protein abundance came to 1.11 ± 0.068.

For the target UniProt Q9BXW7 and related entries, the NP40-soluble protein abundance worked out at 0.937 ± 0.034.

For UniProt Q9BQC6, the NP40-soluble protein abundance stood at 0.906 ± 0.085.

UniProt Q9BYG3: the NP40-soluble protein abundance came out at 1.05 ± 0.073.

GRWD1 (UniProt Q9BQ67): the NP40-soluble protein abundance was 1.03 ± 0.038.

For SGPP1 (UniProt Q9BX95), the NP40-soluble protein abundance was 0.936 ± 0.056.

Take TCF25 (UniProt Q9BQ70): the NP40-soluble protein abundance came to 1.04 ± 0.032.

Turning to UniProt Q99767-2, the NP40-soluble protein abundance came out at 0.906 ± 0.09.

Consider UniProt Q9BVJ6 and related entries, for which the NP40-soluble protein abundance was 1.12 ± 0.025.

For the target MRPL20 (UniProt Q9BYC9), the NP40-soluble protein abundance was 0.941 ± 0.13.

TARS2 (UniProt Q9BW92): the NP40-soluble protein abundance was 1.05 ± 0.082.

For the target ARPC5L (UniProt Q9BPX5), the NP40-soluble protein abundance amounted to 0.963 ± 0.066.

For UniProt Q9BV81, the NP40-soluble protein abundance turned out to be 1 ± 0.075.

SH3GL1 (UniProt Q99961): the NP40-soluble protein abundance was 0.976 ± 0.042.

On to RIOK1 (UniProt Q9BRS2), for which the NP40-soluble protein abundance was found to be 1.13 ± 0.069.

Turning to NAPG (UniProt Q99747), the NP40-soluble protein abundance was determined as 0.938 ± 0.039.

With DDA1 (UniProt Q9BW61), the NP40-soluble protein abundance turned out to be 0.935 ± 0.078.

Turning to YTHDF1 (UniProt Q9BYJ9), the NP40-soluble protein abundance came to 1.05 ± 0.054.

Regarding GINS4 (UniProt Q9BRT9), the NP40-soluble protein abundance is 0.978 ± 0.019.

On to TSNAX (UniProt Q99598), for which the NP40-soluble protein abundance was 0.961 ± 0.018.

For the target VPS25 (UniProt Q9BRG1), the NP40-soluble protein abundance is 1.02 ± 0.08.

On to TRMT61B (UniProt Q9BVS5), for which the NP40-soluble protein abundance turned out to be 1.02 ± 0.087.

On to MRPL9 (UniProt Q9BYD2), for which the NP40-soluble protein abundance was determined as 0.913 ± 0.035.

With UniProt Q99504 and related entries, the NP40-soluble protein abundance came to 1.05 ± 0.044.

The assay is the same for the next values; noted with them: concentration: 4mM.
With UniProt Q9BRP8-2|Q9BRP8, the NP40-soluble protein abundance came to 0.979 ± 0.12.

Take WDR77 (UniProt Q9BQA1): the NP40-soluble protein abundance amounted to 1.06 ± 0.073.

With UniProt Q99729-3|Q99729, the NP40-soluble protein abundance came to 0.92 ± 0.053.

As for TRIM56 (UniProt Q9BRZ2), the NP40-soluble protein abundance came out at 1.18 ± 0.078.

In the case of UniProt Q99941 and related entries, the NP40-soluble protein abundance was determined as 1.01 ± 0.031.

For the target UniProt Q9BUH6, the NP40-soluble protein abundance was found to be 1.08 ± 0.015.

In the case of RBCK1 (UniProt Q9BYM8), the NP40-soluble protein abundance is 0.962 ± 0.035.

With UniProt Q9BSR8 and related entries, the NP40-soluble protein abundance worked out at 0.987 ± 0.0079.

For MIPEP (UniProt Q99797), the NP40-soluble protein abundance was determined as 1 ± 0.061.

As to UniProt Q9BVC4 and related entries, the NP40-soluble protein abundance was 1 ± 0.067.

For the target BACH2 (UniProt Q9BYV9), the NP40-soluble protein abundance turned out to be 0.957 ± 0.035.

Consider UniProt Q9BUR4, for which the NP40-soluble protein abundance stood at 1.12 ± 0.15.

Consider UniProt Q9BXW7 and related entries, for which the NP40-soluble protein abundance stood at 0.927 ± 0.046.

UniProt Q9BQC6: the NP40-soluble protein abundance turned out to be 0.9318 ± 0.0087.

UniProt Q9BYG3: the NP40-soluble protein abundance was determined as 1.08 ± 0.12.

For GRWD1 (UniProt Q9BQ67), the NP40-soluble protein abundance is 1.05 ± 0.03.

SGPP1 (UniProt Q9BX95): the NP40-soluble protein abundance turned out to be 0.972 ± 0.058.

Take TCF25 (UniProt Q9BQ70): the NP40-soluble protein abundance stood at 1.13 ± 0.05.

As for UniProt Q99767-2, the NP40-soluble protein abundance amounted to 1.01 ± 0.082.

For the target UniProt Q9BVJ6 and related entries, the NP40-soluble protein abundance came out at 1.17 ± 0.035.

As to MRPL20 (UniProt Q9BYC9), the NP40-soluble protein abundance was 1.02 ± 0.23.

As to TARS2 (UniProt Q9BW92), the NP40-soluble protein abundance stood at 1.06 ± 0.071.

On to ARPC5L (UniProt Q9BPX5), for which the NP40-soluble protein abundance was 0.982 ± 0.015.

Consider UniProt Q9BV81, for which the NP40-soluble protein abundance is 0.967 ± 0.08.

As for SH3GL1 (UniProt Q99961), the NP40-soluble protein abundance is 0.997 ± 0.041.

RIOK1 (UniProt Q9BRS2): the NP40-soluble protein abundance stood at 1.16 ± 0.099.

With NAPG (UniProt Q99747), the NP40-soluble protein abundance is 0.907 ± 0.043.

For the target DDA1 (UniProt Q9BW61), the NP40-soluble protein abundance was determined as 0.932 ± 0.06.

As for YTHDF1 (UniProt Q9BYJ9), the NP40-soluble protein abundance came out at 1.05 ± 0.035.

With GINS4 (UniProt Q9BRT9), the NP40-soluble protein abundance is 0.976 ± 0.028.

Turning to TSNAX (UniProt Q99598), the NP40-soluble protein abundance came out at 0.938 ± 0.018.

As for VPS25 (UniProt Q9BRG1), the NP40-soluble protein abundance came out at 0.97 ± 0.093.

Consider TRMT61B (UniProt Q9BVS5), for which the NP40-soluble protein abundance is 1.03 ± 0.047.

For the target MRPL9 (UniProt Q9BYD2), the NP40-soluble protein abundance worked out at 0.899 ± 0.092.

Turning to UniProt Q99504 and related entries, the NP40-soluble protein abundance came out at 1.05 ± 0.023.
